No constants are given. Whether binding was seen depends on the method and setting. In cells and extracts the contact can be indirect. Some results given as binding are weak or reduced against the parent protein; the word gives no strength.
Molecular target: T1, heme oxygenase 1 (human (endogenous in MSCs)) (UniProt P09601)
T1 sequence: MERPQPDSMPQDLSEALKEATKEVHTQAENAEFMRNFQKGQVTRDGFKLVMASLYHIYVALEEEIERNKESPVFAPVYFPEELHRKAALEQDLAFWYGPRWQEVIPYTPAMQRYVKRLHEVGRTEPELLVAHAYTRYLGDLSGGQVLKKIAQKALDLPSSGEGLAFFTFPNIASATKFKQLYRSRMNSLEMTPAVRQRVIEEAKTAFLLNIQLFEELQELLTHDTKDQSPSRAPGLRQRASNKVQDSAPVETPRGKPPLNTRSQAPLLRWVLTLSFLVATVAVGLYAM
Assay: co-IP; proteins collected from human MSCs, immunoprecipitated with anti-HO-1, immunoprecipitate probed with anti-STC2; 5% input as positive control, IgG as negative control

Amino acid sequences for entries named in this document (tags omitted). Residues count along the entry.
UniProt O76061, residues 25-302: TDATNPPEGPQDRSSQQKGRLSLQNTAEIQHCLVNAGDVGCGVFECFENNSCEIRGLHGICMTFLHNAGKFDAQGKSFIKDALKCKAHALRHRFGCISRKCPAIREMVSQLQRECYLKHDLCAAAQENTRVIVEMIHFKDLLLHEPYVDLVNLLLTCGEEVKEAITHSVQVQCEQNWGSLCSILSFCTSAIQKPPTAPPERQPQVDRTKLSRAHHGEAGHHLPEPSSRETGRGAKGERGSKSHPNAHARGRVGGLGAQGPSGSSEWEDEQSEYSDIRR

binding: binds
Substance: Stanniocalcin-2 (from UniProt O76061 25-302)
